Measured values published in the supplement of paper PMC8728848.
This is one part of the list.

Tests used:
Experiment in all cases: glycan array binding signal (z-score within array); higher = stronger binding
Conditions in all cases: glycan notation: IUPAC condensed, linker removed
Gal3S(b1-4)Glc = target: Gal3S(b1-4)Glc
Outline: (§1)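 Glycan array data were curated from 3228 arrays in the Consortium for Functional Glycomics database and kept only where the protein sequence was available. Glycan names were converted to IUPAC-condensed notation, and columns mapping to the same glycan were averaged. The binding signal is a within-array Z-score, averaged across arrays of the same protein sequence at different concentrations or buffers and across linkers. Negative Z-scores can be read as non-binding.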

Gal3S(b1-4)Glc6S = target: Gal3S(b1-4)Glc6S
Outline: as §1

Gal3S(b1-4)GlcNAc = target: Gal3S(b1-4)GlcNAc
Outline: as §1

[1] = target: Gal3S(b1-4)[Fuc(a1-3)]Glc6S
Outline: as §1

[2] = target: Gal3S(b1-4)[Fuc(a1-3)]GlcNAc
Outline: as §1

[3] = target: Gal3S(b1-4)[Fuc(a1-3)]GlcNAc6S
Outline: as §1

Gal3S4S(b1-4)GlcNAc = target: Gal3S4S(b1-4)GlcNAc
Outline: as §1

Gal3S6S(b1-4)GlcNAc = target: Gal3S6S(b1-4)GlcNAc
Outline: as §1

Gal3S6S(b1-4)GlcNAc6S = target: Gal3S6S(b1-4)GlcNAc6S
Outline: as §1

Gal4S(b1-4)GlcNAc = target: Gal4S(b1-4)GlcNAc
Outline: as §1

Gal4S6S(b1-4)GlcNAc = target: Gal4S6S(b1-4)GlcNAc
Outline: as §1

Gal6P(b1-4)GlcNAc = target: Gal6P(b1-4)GlcNAc
Outline: as §1

Gal6S(b1-3)GlcNAc = target: Gal6S(b1-3)GlcNAc
Outline: as §1

Gal6S(b1-3)GlcNAc6S = target: Gal6S(b1-3)GlcNAc6S
Outline: as §1

Gal6S(b1-4)Glc = target: Gal6S(b1-4)Glc
Outline: as §1

Gal6S(b1-4)Glc6S = target: Gal6S(b1-4)Glc6S
Outline: as §1

Gal6S(b1-4)GlcNAc = target: Gal6S(b1-4)GlcNAc
Outline: as §1

Gal6S(b1-4)GlcNAc6S = target: Gal6S(b1-4)GlcNAc6S
Outline: as §1

GalNAc(a1-3)Gal = target: GalNAc(a1-3)Gal
Outline: as §1

GalNAc(a1-3)GalNAc = target: GalNAc(a1-3)GalNAc
Outline: as §1

[4] = target: GalNAc(a1-3)GalNAc(b1-3)Gal(a1-4)Gal(b1-4)Glc
Outline: as §1

[5] = target: GalNAc(a1-3)GalNAc(b1-3)Gal(a1-4)Gal(b1-4)GlcNAc
Outline: as §1

GalNAc(b1-3)Gal = target: GalNAc(b1-3)Gal
Outline: as §1

[6] = target: GalNAc(b1-3)Gal(a1-4)Gal(b1-4)GlcNAc
Outline: as §1

[7] = target: GalNAc(b1-3)Gal(a1-4)Gal(b1-4)GlcNAc(b1-3)Gal(b1-4)Glc
Outline: as §1

[8] = target: GalNAc(b1-3)Gal(a1-6)Gal(b1-4)Glc
Outline: as §1

GalNAc(b1-3)GalNAc = target: GalNAc(b1-3)GalNAc
Outline: as §1

GalNAc(b1-3)GlcNAc = target: GalNAc(b1-3)GlcNAc
Outline: as §1

GalNAc(b1-4)Gal(b1-4)Glc = target: GalNAc(b1-4)Gal(b1-4)Glc
Outline: as §1

GalNAc(b1-4)GlcNAc = target: GalNAc(b1-4)GlcNAc
Outline: as §1

[9] = target: GalNAc(b1-4)GlcNAc(b1-2)Man
Outline: as §1

[10] = target: GalNAc(b1-4)GlcNAc(b1-2)Man(a1-3)[GalNAc(b1-4)GlcNAc(b1-2)Man(a1-6)]Man(b1-4)GlcNAc(b1-4)GlcNAc
Outline: as §1

[11] = target: GalNAc(b1-4)GlcNAc(b1-3)GalNAc(b1-4)GlcNAc
Outline: as §1

GalNAc(b1-4)GlcNAc6S = target: GalNAc(b1-4)GlcNAc6S
Outline: as §1

GalNAc(b1-6)GalNAc = target: GalNAc(b1-6)GalNAc
Outline: as §1

GalNAc3S(b1-4)GlcNAc = target: GalNAc3S(b1-4)GlcNAc
Outline: as §1

GalNAc3S(b1-4)GlcNAc3S = target: GalNAc3S(b1-4)GlcNAc3S
Outline: as §1

[12] = target: GalNAc3S(b1-4)[Fuc(a1-3)]GlcNAc
Outline: as §1

GalNAc4S6S(b1-4)GlcNAc = target: GalNAc4S6S(b1-4)GlcNAc
Outline: as §1

GalNAc6S(b1-4)GlcNAc = target: GalNAc6S(b1-4)GlcNAc
Outline: as §1

Glc(a1-4)Glc = target: Glc(a1-4)Glc
Outline: as §1

[13] = target: Glc(a1-4)Glc(a1-4)Glc(a1-4)Glc
Outline: as §1

Glc(a1-6)Glc(a1-6)Glc = target: Glc(a1-6)Glc(a1-6)Glc
Outline: as §1

[14] = target: Glc(a1-6)Glc(a1-6)Glc(a1-6)Glc
Outline: as §1

Glc(b1-4)Glc = target: Glc(b1-4)Glc
Outline: as §1

B1: Lb MiSSP8 (Laccaria bicolor) (protein)
chain: MYFHTLFACATLMLITTAHASPTVINSLDSRKADLNGDVEARHAADWRRDSDWRRDSDWRRDSDWRRDSD
glycan array binding signal (z-score) (Gal3S(b1-4)Glc): 0.63
glycan array binding signal (z-score) (Gal3S(b1-4)Glc6S): -0.129
glycan array binding signal (z-score) (Gal3S(b1-4)GlcNAc): 0.312
glycan array binding signal (z-score) [1]: 0.678
glycan array binding signal (z-score) [2]: 0.554
glycan array binding signal (z-score) [3]: 0.295
glycan array binding signal (z-score) (Gal3S4S(b1-4)GlcNAc): -0.771
glycan array binding signal (z-score) (Gal3S6S(b1-4)GlcNAc): -0.26
glycan array binding signal (z-score) (Gal3S6S(b1-4)GlcNAc6S): -0.613
glycan array binding signal (z-score) (Gal4S(b1-4)GlcNAc): -0.633
glycan array binding signal (z-score) (Gal4S6S(b1-4)GlcNAc): -0.73
glycan array binding signal (z-score) (Gal6P(b1-4)GlcNAc): -0.695
glycan array binding signal (z-score) (Gal6S(b1-3)GlcNAc): -0.502
glycan array binding signal (z-score) (Gal6S(b1-3)GlcNAc6S): -0.033
glycan array binding signal (z-score) (Gal6S(b1-4)Glc): -0.416
glycan array binding signal (z-score) (Gal6S(b1-4)Glc6S): -0.571
glycan array binding signal (z-score) (Gal6S(b1-4)GlcNAc): -0.613
glycan array binding signal (z-score) (Gal6S(b1-4)GlcNAc6S): -0.571
glycan array binding signal (z-score) (GalNAc(a1-3)Gal): -0.723
glycan array binding signal (z-score) (GalNAc(a1-3)GalNAc): -0.385
glycan array binding signal (z-score) [4]: -0.778
glycan array binding signal (z-score) [5]: 0.899
glycan array binding signal (z-score) (GalNAc(b1-3)Gal): 0.25
glycan array binding signal (z-score) [6]: 1.07
glycan array binding signal (z-score) [7]: 4.15
glycan array binding signal (z-score) [8]: -0.419
glycan array binding signal (z-score) (GalNAc(b1-3)GalNAc): -0.122
glycan array binding signal (z-score) (GalNAc(b1-3)GlcNAc): -0.399
glycan array binding signal (z-score) (GalNAc(b1-4)Gal(b1-4)Glc): -0.226
glycan array binding signal (z-score) (GalNAc(b1-4)GlcNAc): 1.03
glycan array binding signal (z-score) [9]: -0.744
glycan array binding signal (z-score) [10]: 1.2
glycan array binding signal (z-score) [11]: 2.18
glycan array binding signal (z-score) (GalNAc(b1-4)GlcNAc6S): 0.837
glycan array binding signal (z-score) (GalNAc(b1-6)GalNAc): -0.764
glycan array binding signal (z-score) (GalNAc3S(b1-4)GlcNAc): -0.267
glycan array binding signal (z-score) (GalNAc3S(b1-4)GlcNAc3S): -0.592
glycan array binding signal (z-score) [12]: -0.185
glycan array binding signal (z-score) (GalNAc4S6S(b1-4)GlcNAc): -0.806
glycan array binding signal (z-score) (GalNAc6S(b1-4)GlcNAc): -0.902
glycan array binding signal (z-score) (Glc(a1-4)Glc): 1.21
glycan array binding signal (z-score) [13]: 1.44
glycan array binding signal (z-score) (Glc(a1-6)Glc(a1-6)Glc): -0.109
glycan array binding signal (z-score) [14]: -0.592
glycan array binding signal (z-score) (Glc(b1-4)Glc): -0.392
